Patent publication US8735620B2, “Processes for preparing (E)-styrylbenzylsulfone compounds and uses thereof for treating proliferative disorders” (priority 2008, dated 2014)
At least one compound was matched to its structure with a doubt left.

Tested on: H157 (human lung tumor cell line)
Experiment: Cytotoxicity assay (trypan blue exclusion, 96 h), H157
Type: cell-based
Settings: H157, 96 h treatment

COc1cc(OC)c(/C=C/S(=O)(=O)Cc2ccc([N+](=O)[O-])cc2)c(OC)c1 [6af, (E)-2,4,6-trimethoxystyryl-4-Nitrobenzyl sulfone]
IC50: 20 µM
